The target of experiment [1] is Flag-tagged WT arrestin-2 (UniProt P17870). Nature of the experiment: co-IP; COS-7 cells co-transfected, serum starved, with or without 10 µM isoproterenol (10 min, 37°C) and with or without HA-β2AR over-expression; anti-Flag immunoprecipitation of arrestin, anti-HA blot; lysis buffer with 250 mM NaCl, 0.5% Nonidet P-40.
Experiment [2] addresses Flag-tagged WT arrestin-3 (UniProt P32120). The experiment is described as above.

Protein sequences, listed by entry. Tags and fused reporters are not part of them.
UniProt P17870: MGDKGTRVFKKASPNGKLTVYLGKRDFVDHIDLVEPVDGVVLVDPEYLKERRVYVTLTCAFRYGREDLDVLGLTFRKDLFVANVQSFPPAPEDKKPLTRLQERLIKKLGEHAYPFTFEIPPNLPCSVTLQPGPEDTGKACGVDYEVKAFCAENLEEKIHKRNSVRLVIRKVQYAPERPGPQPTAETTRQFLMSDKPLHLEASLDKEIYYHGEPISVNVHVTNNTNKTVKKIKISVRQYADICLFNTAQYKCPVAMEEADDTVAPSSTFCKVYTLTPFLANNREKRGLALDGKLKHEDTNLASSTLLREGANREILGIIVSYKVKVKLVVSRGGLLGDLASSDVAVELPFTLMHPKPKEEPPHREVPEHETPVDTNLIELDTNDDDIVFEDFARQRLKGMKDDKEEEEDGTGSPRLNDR

These are yes or no findings as the source states them, for the method shown. In cells and extracts the contact can be indirect. Some entries that bind do so weakly or less than the wild type.

The text below walks through data of publication PMC3236217.

As to “MEK1-HA (from UniProt Q02750 1-393) (enzyme)”, the binding entry in experiment [1] and in experiment [2] was “binds” throughout.
With “c-Raf1-HA (from UniProt P04049 1-648) (enzyme)”, the binding result in experiment [1] and in experiment [2] was “binds” each time.
